# These are yes or no findings as the source states them, for the method shown. Some binding calls cover weakened binding; strength is not graded here.
# Sequences of proteins named here, by UniProt entry; tags and fusion partners are left off. A change or cut given only in a name is not applied to a line headed by its entry. Residues count along the entry.
# UniProt Q5VWK5, residues 24-353: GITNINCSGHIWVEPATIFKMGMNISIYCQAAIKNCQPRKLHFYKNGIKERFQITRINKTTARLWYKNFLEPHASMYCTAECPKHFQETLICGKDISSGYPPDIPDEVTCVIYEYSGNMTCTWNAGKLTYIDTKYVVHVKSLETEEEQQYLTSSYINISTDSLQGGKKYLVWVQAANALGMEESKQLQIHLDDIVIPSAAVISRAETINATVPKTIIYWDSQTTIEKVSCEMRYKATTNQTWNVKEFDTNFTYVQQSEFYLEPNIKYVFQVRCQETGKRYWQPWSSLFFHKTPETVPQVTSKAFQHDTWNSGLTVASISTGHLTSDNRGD
# UniProt P29460: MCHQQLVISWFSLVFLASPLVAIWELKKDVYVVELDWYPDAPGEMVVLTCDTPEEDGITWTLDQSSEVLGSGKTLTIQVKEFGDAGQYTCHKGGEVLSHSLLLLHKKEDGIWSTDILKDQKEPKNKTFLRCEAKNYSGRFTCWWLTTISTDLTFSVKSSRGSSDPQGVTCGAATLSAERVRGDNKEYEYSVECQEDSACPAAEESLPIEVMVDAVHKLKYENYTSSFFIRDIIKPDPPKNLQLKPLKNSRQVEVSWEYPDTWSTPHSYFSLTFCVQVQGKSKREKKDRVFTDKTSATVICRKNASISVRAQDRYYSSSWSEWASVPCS
# Target: Human IL-23R-Fc (human) (UniProt Q5VWK5)
# Assay: biosensor sensorgram (response in nm): human IL-23R-Fc captured on the sensor surface, 10 nM human IL-23 injected
substance,measurement,value
recombinant human IL-23 (from UniProt P29460 23-328) (ligand),binding,binds

# From patent US20120282269A1 (Boehringer Ingelheim, published 2012)
